Experimental data from article PMC9701038.
These are yes or no findings as the source states them, for the method shown. Binding seen in cells or lysates may run through a third protein. A yes stands for co-enrichment or nearness to the bait. Other partners may have been found.

Amino acid sequences for entries named in this document (tags omitted). Residues count along the entry.
UniProt Q13443, residues 29-819: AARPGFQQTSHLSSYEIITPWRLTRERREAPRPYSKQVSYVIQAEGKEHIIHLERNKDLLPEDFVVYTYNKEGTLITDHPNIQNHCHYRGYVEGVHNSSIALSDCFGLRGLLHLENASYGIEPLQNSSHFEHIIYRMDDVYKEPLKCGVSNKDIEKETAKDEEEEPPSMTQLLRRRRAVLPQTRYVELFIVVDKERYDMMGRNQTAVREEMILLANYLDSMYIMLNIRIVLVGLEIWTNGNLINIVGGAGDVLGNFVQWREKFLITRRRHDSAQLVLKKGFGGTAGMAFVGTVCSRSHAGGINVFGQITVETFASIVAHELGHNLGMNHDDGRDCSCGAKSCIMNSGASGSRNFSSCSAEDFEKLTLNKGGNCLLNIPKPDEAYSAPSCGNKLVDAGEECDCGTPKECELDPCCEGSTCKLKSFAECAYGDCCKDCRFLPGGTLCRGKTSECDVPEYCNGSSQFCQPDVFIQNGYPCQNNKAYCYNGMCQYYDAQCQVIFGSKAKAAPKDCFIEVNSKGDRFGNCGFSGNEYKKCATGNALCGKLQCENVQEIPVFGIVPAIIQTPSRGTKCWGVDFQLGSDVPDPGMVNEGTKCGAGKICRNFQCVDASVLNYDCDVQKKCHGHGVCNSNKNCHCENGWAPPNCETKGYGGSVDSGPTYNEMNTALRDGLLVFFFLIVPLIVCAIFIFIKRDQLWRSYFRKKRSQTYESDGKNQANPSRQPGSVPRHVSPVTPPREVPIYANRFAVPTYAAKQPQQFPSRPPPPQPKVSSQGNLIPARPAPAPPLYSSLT
UniProt Q9H5V8, residues 30-836: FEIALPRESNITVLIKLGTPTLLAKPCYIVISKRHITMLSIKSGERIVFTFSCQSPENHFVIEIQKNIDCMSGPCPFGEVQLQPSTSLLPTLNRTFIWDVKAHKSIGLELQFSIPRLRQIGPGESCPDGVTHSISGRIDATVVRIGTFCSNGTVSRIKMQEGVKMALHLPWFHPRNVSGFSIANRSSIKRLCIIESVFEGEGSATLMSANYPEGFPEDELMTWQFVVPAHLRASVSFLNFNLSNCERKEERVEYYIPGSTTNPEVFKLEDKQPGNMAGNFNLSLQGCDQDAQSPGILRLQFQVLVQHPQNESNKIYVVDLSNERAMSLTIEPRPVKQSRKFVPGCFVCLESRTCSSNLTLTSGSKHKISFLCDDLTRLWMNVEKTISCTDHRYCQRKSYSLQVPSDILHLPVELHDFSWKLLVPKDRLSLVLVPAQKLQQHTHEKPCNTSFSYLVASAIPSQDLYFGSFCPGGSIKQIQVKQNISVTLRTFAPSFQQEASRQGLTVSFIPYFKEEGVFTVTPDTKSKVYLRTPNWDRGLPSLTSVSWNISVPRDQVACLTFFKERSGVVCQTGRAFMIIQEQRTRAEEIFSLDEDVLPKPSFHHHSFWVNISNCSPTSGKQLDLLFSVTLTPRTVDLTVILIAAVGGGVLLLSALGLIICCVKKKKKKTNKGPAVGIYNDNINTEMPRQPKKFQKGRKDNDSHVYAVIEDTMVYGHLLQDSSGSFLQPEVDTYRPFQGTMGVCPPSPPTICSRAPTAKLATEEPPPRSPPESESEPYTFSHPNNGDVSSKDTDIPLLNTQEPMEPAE
UniProt Q71RC2: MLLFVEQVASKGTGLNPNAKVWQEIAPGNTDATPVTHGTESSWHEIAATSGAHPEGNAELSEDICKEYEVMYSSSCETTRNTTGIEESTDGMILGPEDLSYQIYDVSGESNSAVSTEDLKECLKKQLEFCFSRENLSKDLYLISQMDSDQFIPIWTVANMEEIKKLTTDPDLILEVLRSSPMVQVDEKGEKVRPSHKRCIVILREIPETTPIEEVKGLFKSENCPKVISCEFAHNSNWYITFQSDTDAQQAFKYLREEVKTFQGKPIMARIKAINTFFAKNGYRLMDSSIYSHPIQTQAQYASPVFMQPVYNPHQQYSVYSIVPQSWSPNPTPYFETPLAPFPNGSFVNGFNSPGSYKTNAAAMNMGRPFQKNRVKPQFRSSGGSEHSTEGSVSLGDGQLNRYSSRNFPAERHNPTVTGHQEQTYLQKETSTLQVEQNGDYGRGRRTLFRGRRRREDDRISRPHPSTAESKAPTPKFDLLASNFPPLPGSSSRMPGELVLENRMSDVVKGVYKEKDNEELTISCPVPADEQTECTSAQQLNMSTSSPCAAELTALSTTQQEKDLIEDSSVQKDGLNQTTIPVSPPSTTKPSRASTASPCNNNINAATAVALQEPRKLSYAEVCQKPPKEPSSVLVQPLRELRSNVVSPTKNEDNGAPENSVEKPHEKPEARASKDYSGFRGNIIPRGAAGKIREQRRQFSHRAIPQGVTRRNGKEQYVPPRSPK
UniProt Q92615: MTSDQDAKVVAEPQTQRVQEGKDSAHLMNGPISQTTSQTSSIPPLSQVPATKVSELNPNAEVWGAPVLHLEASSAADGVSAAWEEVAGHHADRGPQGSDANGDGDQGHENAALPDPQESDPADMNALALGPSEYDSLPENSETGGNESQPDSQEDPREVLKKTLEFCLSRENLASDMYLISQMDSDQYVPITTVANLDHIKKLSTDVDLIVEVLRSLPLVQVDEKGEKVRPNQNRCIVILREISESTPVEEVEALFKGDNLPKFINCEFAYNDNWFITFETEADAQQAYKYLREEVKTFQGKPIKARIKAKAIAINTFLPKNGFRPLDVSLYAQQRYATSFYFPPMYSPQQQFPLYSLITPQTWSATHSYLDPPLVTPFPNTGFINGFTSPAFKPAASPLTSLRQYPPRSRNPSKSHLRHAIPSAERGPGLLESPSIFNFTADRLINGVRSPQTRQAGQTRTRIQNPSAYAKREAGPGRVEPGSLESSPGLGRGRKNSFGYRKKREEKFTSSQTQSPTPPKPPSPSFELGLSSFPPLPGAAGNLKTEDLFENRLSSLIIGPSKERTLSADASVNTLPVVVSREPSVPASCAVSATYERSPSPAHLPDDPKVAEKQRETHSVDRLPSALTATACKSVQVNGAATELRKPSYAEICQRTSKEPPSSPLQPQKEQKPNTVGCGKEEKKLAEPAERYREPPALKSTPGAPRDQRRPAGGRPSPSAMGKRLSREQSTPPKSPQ

T1: BirA-HOGA1 (from pLVXyu-BirA-HOGA1) (human) (UniProt Q86XE5)
T1 sequence: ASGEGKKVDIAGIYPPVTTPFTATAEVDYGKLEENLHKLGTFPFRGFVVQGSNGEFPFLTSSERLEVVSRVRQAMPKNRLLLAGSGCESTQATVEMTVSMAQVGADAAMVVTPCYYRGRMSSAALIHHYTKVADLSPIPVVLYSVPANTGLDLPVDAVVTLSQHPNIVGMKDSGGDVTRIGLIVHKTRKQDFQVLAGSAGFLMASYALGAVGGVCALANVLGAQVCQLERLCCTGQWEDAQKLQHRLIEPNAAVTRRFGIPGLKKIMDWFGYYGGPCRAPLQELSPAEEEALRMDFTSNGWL


Key:
[1] = molecular target: ADAM9 (human (endogenous in PANC-1)) (UniProt Q13443); experiment: affinity purification with mass spectrometry; IP-MS with an anti-ADAM9 antibody in PANC-1 cells treated with scrambled siRNA or with ADAM9 knocked down
[2] = molecular target: T1, BirA-HOGA1 (from pLVXyu-BirA-HOGA1) (human); experiment: proximity labelling; called tandem affinity purification by the paper; PANC-1 cells transfected with pLVXyu-BirA-HOGA1, biotin 50 uM; lysis in 0.1% NP40 buffer (50 mM Tris-HCl pH 7.5, 150 mM NaCl, 0.3% NONIDET P-40); lysate on SBP beads 3 h at 4 C; on-bead tryptic digestion, mass spectrometry

| Molecule | binding [1] | binding [2] |
| --- | --- | --- |
| CDCP1 (from UniProt Q9H5V8 30-836) | binds |  |
| LARP4 (from UniProt Q71RC2 1-724) |  | binds |
| LARP4B (from UniProt Q92615 1-738) |  | binds |
| LARP7 (protein, UniProt Q4G0J3 1-582) METESGNQEKVMEEESTEKKKEVEKKKRSRVKQVLADIAKQVDFWFGDANLHKDRFLREQIEKSRDGYVDISLLVSFNKMKKLTTDGKLIARALRSSAVVELDLEGTRIRRKKPLGERPKDEDERTVYVELLPKNVNHSWIERVFGKCGNVVYISIPHYKSTGDPKGFAFVEFETKEQAAKAIEFLNNPPEEAPRKPGIFPKTVKNKPIPALRVVEEKKKKKKKKGRMKKEDNIQAKEENMDTSNTSISKMKRSRPTSEGSDIESTEPQKQCSKKKKKRDRVEASSLPEVRTGKRKRSSSEDAESLAPRSKVKKIIQKDIIKEASEASKENRDIEISTEEEKDTGDLKDSSLLKTKRKHKKKHKERHKMGEEVIPLRVLSKSEWMDLKKEYLALQKASMASLKKTISQIKSESEMETDSGVPQNTGMKNEKTANREECRTQEKVNATGPQFVSGVIVKIISTEPLPGRKQVRDTLAAISEVLYVDLLEGDTECHARFKTPEDAQAVINAYTEINKKHCWKLEILSGDHEQRYWQKILVDRQAKLNQPREKKRGTEKLITKAEKIRLAKTQQASKHIRFSEYD |  | binds |
